Reference: PubChem BioAssay AID1259254 (NCATS, 2017)

Test: 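Genome-wide screen for genes that prevent DNA re-replication in cancer cells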 (primary screen)
Cell system: human HCT116 colorectal cancer cells
Reagents: single siRNA against human genes
Timing: 3 days
Detection: 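Imaged Hoechst DNA stain sorts each cell into a cycle phase by DNA amount; per plate, G2 fraction set to 0% for non-targeting and 100% for GMNN siRNA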
Scale: G2 robust z-score and G2 cells, % of GMNN control: higher = more G2 cells, more excess DNA replication; raw share of cells in G2: higher = larger share of cells with G2 DNA content
Hit rule: 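Active siRNAs have a G2 robust z of 5 or more median absolute deviations over the median, which in these data means about 38% or higher of GMNN control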
This is an unselected part of about 59,000 reagents. About 1,550 of all reagents (2.6%) count as active. 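G2 share is only a proxy for re-replication; each gene was hit by three separate siRNAs, and active genes were retested.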 Raw values are not corrected between plates. The numbers tell different reagents against one gene apart. Not given: the amount of reagent.

| gene | siRNA no. | G2 robust z-score | G2 cells, % of GMNN control | raw share of cells in G2 (%) | Outcome |
| --- | --- | --- | --- | --- | --- |
| AQP1 (aquaporin 1 (Colton blood group)) | 1 | -0.108 | 2.21 | 5.86 | inactive |
| AQP1 (aquaporin 1 (Colton blood group)) | 2 | 0.254 | 4.76 | 5.76 | inactive |
| AQP1 (aquaporin 1 (Colton blood group)) | 3 | 3.28 | 26 | 13.6 | inactive |
| DCLK2 (doublecortin like kinase 2) | 1 | -0.215 | 1.45 | 6.04 | inactive |
| DCLK2 (doublecortin like kinase 2) | 2 | 0.685 | 7.79 | 8.02 | inactive |
| DCLK2 (doublecortin like kinase 2) | 3 | -0.945 | -3.68 | 2.5 | inactive |
| TBCE (tubulin folding cofactor E) | 1 | -0.0107 | 2.89 | 6.41 | inactive |
| TBCE (tubulin folding cofactor E) | 2 | 1.46 | 13.2 | 9.14 | inactive |
| TBCE (tubulin folding cofactor E) | 3 | 1.9 | 16.4 | 9.13 | inactive |
| PCDHAC2 (protocadherin alpha subfamily C, 2) | 1 | 0.871 | 9.1 | 10.4 | inactive |
| PCDHAC2 (protocadherin alpha subfamily C, 2) | 2 | 2.08 | 17.6 | 10.8 | inactive |
| PCDHAC2 (protocadherin alpha subfamily C, 2) | 3 | -0.493 | -0.504 | 4.12 | inactive |
| PREP (prolyl endopeptidase) | 1 | -0.0984 | 2.28 | 6.35 | inactive |
| PREP (prolyl endopeptidase) | 2 | -0.238 | 1.29 | 5.37 | inactive |
| PREP (prolyl endopeptidase) | 3 | 0.136 | 3.93 | 5.37 | inactive |
| C1orf159 (chromosome 1 open reading frame 159) | 1 | 0.467 | 6.25 | 5.84 | inactive |
| C1orf159 (chromosome 1 open reading frame 159) | 2 | -0.89 | -3.3 | 2.88 | inactive |
| C1orf159 (chromosome 1 open reading frame 159) | 3 | -0.232 | 1.33 | 3.63 | inactive |
| KATNIP (katanin interacting protein) | 1 | 1.67 | 14.7 | 10.8 | inactive |
| KATNIP (katanin interacting protein) | 2 | 0.217 | 4.49 | 5.99 | inactive |
| KATNIP (katanin interacting protein) | 3 | -0.747 | -2.29 | 2.32 | inactive |
| TSPAN17 (tetraspanin 17) | 1 | -0.72 | -2.1 | 3.3 | inactive |
| TSPAN17 (tetraspanin 17) | 2 | -0.524 | -0.72 | 5.84 | inactive |
| TSPAN17 (tetraspanin 17) | 3 | -0.216 | 1.45 | 4.67 | inactive |
| PAX4 (paired box 4) | 1 | 0.602 | 7.2 | 7.93 | inactive |
| PAX4 (paired box 4) | 2 | -1.05 | -4.41 | 1.7 | inactive |
| PAX4 (paired box 4) | 3 | 0.273 | 4.89 | 6.73 | inactive |
| VPREB1 (V-set pre-B cell surrogate light chain 1) | 1 | -0.406 | 0.112 | 5.18 | inactive |
| VPREB1 (V-set pre-B cell surrogate light chain 1) | 2 | -0.356 | 0.461 | 4.08 | inactive |
| VPREB1 (V-set pre-B cell surrogate light chain 1) | 3 | 5.8 | 43.8 | 18.8 | active |

4 entries already listed, arranged by “G2 cells, % of GMNN control”, lowest first.
| gene | siRNA no. | G2 robust z-score | G2 cells, % of GMNN control | raw share of cells in G2 (%) | Outcome |
| --- | --- | --- | --- | --- | --- |
| KATNIP (katanin interacting protein) | 3 | -0.747 | -2.29 | 2.32 | inactive |
| TSPAN17 (tetraspanin 17) | 1 | -0.72 | -2.1 | 3.3 | inactive |
| TSPAN17 (tetraspanin 17) | 2 | -0.524 | -0.72 | 5.84 | inactive |
| TSPAN17 (tetraspanin 17) | 3 | -0.216 | 1.45 | 4.67 | inactive |
